Assay results reported in PMC9138505, “Small Molecule 20S Proteasome Enhancer Regulates MYC Protein Stability and Exhibits Antitumor Activity in Multiple Myeloma” (Biomedicines, 2022).

Tested on: RPMI-8226 cells
Test: Gene expression profiling, NanoString nCounter PanCancer Pathways Panel, ROSALIND analysis
Format: cell-based, human
Settings: RPMI-8226, TCH-165 10 μM, 4 h
Procedure: RPMI-8226 cells were treated with vehicle or TCH-165 (10 μM) for 4 h. Total RNA was obtained using the mirVana miRNA Isolation Kit, with phenol (Thermofisher Scientific; AM1560; Waltham, MA, USA). Total RNA was quantified by Qubit (Thermofisher Scientific; Q32855; Waltham, MA, USA). and gene expression was evaluated against the nCounter® PanCancer Pathways Panel^TM according to the standard NanoString protocol.
Data were analyzed by ROSALIND® [36] with a hyperscale architecture developed by ROSALIND, Inc. (San Diego, CA, USA). Normalization, fold changes and p-values were calculated using criteria provided by NanoString. ROSALIND follows the nCounter® Advanced Analysis protocol of dividing counts within a lane by the geometric mean of the normalizer probes from the same lane. Housekeeping probes to be used for normalization are selected based on the geNorm algorithm, as implemented in the NormqPCR R library. Fold changes and p-values are calculated using the fast method as described in the nCounter Advanced Analysis 2.0 User Manual. The p-value adjustment is performed using the Benjamini–Hochberg method of estimating false discovery rates (FDR). Clustering of genes for the final heatmap of differentially expressed genes was done using the PAM (Partitioning Around Medoids) method using the fpc R library. Hypergeometric distribution was used to analyze the enrichment of pathways, gene ontology, domain structure and other ontologies. The topGO R library was used to determine local similarities and dependencies between GO terms in order to perform Elim pruning correction. Several database sources were referenced for enrichment analysis, including Interpro [40], NCBI [41], MSigDB [42, 43], REACTOME [44], WikiPathways. Enrichment was calculated relative to a set of background genes relevant to the experiment.

[1] = of 730 detected genes, 1.5-fold change, p-adjusted <0.05

CCOC(=O)[C@]1(c2ccccc2)N=C(c2ccc(OC)cc2)N(Cc2ccccc2)[C@@H]1c1ccc(NCc2ccccc2)cc1 [TCH-165]
directed significance score, JAK-STAT pathway (ROSALIND gene set enrichment): −3.59
directed significance score, Wnt pathway (ROSALIND gene set enrichment): -3.6
directed significance score, transcriptional misregulation pathway (ROSALIND gene set enrichment): −9.6
number of genes significantly downregulated [1]: 16
number of genes significantly upregulated [1]: 32
